Results are given in words; binding and its absence hold for the method and conditions named. For some assays here: In cells and extracts the contact can be indirect. Some results given as binding are weak or reduced against the parent protein; the word gives no strength.

Protein sequences, listed by entry. Tags and fused reporters are not part of them.
UniProt Q9H6I2, whole entry: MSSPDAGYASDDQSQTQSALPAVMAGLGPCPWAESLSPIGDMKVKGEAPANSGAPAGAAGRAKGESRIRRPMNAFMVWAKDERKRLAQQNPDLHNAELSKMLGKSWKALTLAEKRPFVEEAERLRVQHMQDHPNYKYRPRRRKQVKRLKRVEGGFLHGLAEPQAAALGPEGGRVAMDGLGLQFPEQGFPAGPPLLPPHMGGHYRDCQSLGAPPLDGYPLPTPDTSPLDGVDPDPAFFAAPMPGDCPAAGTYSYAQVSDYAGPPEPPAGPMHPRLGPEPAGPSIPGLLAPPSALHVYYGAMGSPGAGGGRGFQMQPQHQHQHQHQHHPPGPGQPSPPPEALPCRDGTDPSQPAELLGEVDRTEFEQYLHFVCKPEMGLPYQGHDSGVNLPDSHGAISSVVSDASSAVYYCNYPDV
UniProt Q06710, whole entry: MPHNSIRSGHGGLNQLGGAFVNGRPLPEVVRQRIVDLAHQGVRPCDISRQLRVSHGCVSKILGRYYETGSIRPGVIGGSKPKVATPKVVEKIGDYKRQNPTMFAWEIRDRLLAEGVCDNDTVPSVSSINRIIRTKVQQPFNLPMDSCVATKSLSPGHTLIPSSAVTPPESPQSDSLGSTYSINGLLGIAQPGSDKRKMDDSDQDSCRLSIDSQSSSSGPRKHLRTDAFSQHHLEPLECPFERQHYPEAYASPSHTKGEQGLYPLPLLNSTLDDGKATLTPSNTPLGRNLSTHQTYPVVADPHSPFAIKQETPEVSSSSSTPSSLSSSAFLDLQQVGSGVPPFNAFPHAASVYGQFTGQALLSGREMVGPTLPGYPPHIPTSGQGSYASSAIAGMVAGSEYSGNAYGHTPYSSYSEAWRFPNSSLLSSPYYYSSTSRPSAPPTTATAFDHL

Test [1] concerns the target SOX17 (human (endogenous in FTSEC and HGSOC cell lines and human tissues)) (UniProt Q9H6I2). The test can be described thus: co-IP.
The target of test [2] is PAX8 (human (endogenous in FT194, FT246, FT282, OVCAR4, KURAMOCHI, OVSAHO and human tissues)) (UniProt Q06710). Description: co-IP.
Test [3] has the same target. The test can be described thus: proximity ligation.
Test [4] shares this target. Description: proximity ligation. The source holds these as a separate data set.
For test [5] the target is unchanged. Description: SEC. (In general: SEC sorts molecules by how far they enter the pores of the column.)

In the case of PAX8 (from UniProt Q06710 1-450), in test [1], the binding result is on record as “binds”.
Regarding SOX17 (from UniProt Q9H6I2 1-414), the binding result in test [2], in test [3], in test [4] and in test [5] was “binds” throughout.

Values taken from paper doi:10.1101/2020.09.09.290387.
